Data on one molecule can be found in paper PMC4709192.

Sequences of proteins named here, by UniProt entry; tags and fusion partners are left off.
UniProt P98175: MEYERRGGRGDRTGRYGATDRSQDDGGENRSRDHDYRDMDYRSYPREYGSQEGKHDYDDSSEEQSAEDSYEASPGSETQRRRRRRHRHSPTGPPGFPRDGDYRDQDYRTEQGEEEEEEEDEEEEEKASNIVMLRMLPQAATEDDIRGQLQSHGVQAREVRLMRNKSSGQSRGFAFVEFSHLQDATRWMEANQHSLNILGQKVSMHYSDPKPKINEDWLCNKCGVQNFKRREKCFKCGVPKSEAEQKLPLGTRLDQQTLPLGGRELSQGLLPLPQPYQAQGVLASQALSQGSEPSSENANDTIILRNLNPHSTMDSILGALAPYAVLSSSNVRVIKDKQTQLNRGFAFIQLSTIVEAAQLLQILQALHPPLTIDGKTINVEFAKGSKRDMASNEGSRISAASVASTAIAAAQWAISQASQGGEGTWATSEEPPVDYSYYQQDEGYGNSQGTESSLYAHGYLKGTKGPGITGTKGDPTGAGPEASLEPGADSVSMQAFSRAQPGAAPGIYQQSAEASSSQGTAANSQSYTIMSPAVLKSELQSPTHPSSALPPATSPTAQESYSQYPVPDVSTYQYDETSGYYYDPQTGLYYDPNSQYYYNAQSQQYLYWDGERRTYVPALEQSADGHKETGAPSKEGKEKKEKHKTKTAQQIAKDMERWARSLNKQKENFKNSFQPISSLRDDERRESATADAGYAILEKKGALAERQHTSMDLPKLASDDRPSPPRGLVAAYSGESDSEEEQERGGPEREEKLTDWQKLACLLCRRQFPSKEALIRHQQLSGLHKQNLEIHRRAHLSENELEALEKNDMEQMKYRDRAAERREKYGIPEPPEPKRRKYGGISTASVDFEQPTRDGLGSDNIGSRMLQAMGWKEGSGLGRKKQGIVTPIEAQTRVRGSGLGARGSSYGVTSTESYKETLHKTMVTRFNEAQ

No constants are given. Whether binding was seen depends on the method and setting. In cells and extracts the contact can be indirect. Sequences can lack the tags named with a protein.

The test has as its target HA-tagged RBM10 (full length, wild-type) (human) (UniProt P98175). The test can be described thus: co-IP; HEK293T cells transiently co-transfected; lysis buffer 50 mM Tris-HCl pH 8.0, 10% glycerol, 0.1% NP-40, 100 mM NaCl; HA-RBM10 precipitated with anti-HA agarose 1 hour at 4°C; Western blot. (In general: A western blot detects proteins with antibodies after separation by electrophoresis.)

B1: N-terminal half of Flag-FilGAP (NT) (domain or fragment, UniProt Q8N264-1 1-391)
chain: MEENNDSTENPQQGQGRQNAIKCGWLRKQGGFVKTWHTRWFVLKGDQLYYFKDEDETKPLGTIFLPGNKVSEHPCNEENPGKFLFEVVPGGDRDRMTANHESYLLMASTQNDMEDWVKSIRRVIWGPFGGGIFGQKLEDTVRYEKRYGNRLAPMLVEQCVDFIRQRGLKEEGLFRLPGQANLVKELQDAFDCGEKPSFDSNTDVHTVASLLKLYLRELPEPVIPYAKYEDFLSCAKLLSKEEEAGVKELAKQVKSLPVVNYNLLKYICRFLDEVQSYSGVNKMSVQNLATVFGPNILRPKVEDPLTIMEGTVVVQQLMSVMISKHDCLFPKDAELQSKPQDGVSNNNEIQKKATMGQLQNKENNNTKDSPSRQCSWDKSESPQRSSMNNGS
As for B1, the binding result is listed as “no binding”.
